Data from the supplement of paper PMC8728848.
Some of the results follow.

Legend:
Test in all cases: glycan array binding signal (z-score within array); higher = stronger binding
Details in all cases: glycan notation: IUPAC condensed, linker removed
GlcNAc(b1-3)Gal(b1-4)Glc = molecular target: GlcNAc(b1-3)Gal(b1-4)Glc
In short: (§1)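 Glycan array data were curated from 3228 arrays in the Consortium for Functional Glycomics database and kept only where the protein sequence was available. Glycan names were converted to IUPAC-condensed notation, and columns mapping to the same glycan were averaged. The binding signal is a within-array Z-score, averaged across arrays of the same protein sequence at different concentrations or buffers and across linkers. Negative Z-scores can be read as non-binding.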

[1] = molecular target: GlcNAc(b1-3)Gal(b1-4)GlcNAc
In short: as §1

[2] = molecular target: GlcNAc(b1-3)Gal(b1-4)GlcNAc(b1-2)Man(a1-3)[GlcNAc(b1-3)Gal(b1-4)GlcNAc(b1-2)Man(a1-6)]Man(b1-4)GlcNAc(b1-4)GlcNAc
In short: as §1

[3] = molecular target: GlcNAc(b1-3)Gal(b1-4)GlcNAc(b1-2)Man(a1-3)[GlcNAc(b1-3)Gal(b1-4)GlcNAc(b1-2)Man(a1-6)]Man(b1-4)GlcNAc(b1-4)[Fuc(a1-6)]GlcNAc
In short: as §1

[4] = molecular target: GlcNAc(b1-3)Gal(b1-4)GlcNAc(b1-2)[GlcNAc(b1-3)Gal(b1-4)GlcNAc(b1-6)]Man(a1-6)[GlcNAc(b1-3)Gal(b1-4)GlcNAc(b1-2)Man(a1-3)]Man(b1-4)GlcNAc(b1-4)GlcNAc
In short: as §1

[5] = molecular target: GlcNAc(b1-3)Gal(b1-4)GlcNAc(b1-3)Gal(b1-4)GlcNAc
In short: as §1

[6] = molecular target: GlcNAc(b1-3)Gal(b1-4)GlcNAc(b1-3)Gal(b1-4)GlcNAc(b1-2)Man(a1-3)[GlcNAc(b1-3)Gal(b1-4)GlcNAc(b1-3)Gal(b1-4)GlcNAc(b1-2)Man(a1-6)]Man(b1-4)GlcNAc(b1-4)GlcNAc
In short: as §1

[7] = molecular target: GlcNAc(b1-3)Gal(b1-4)GlcNAc(b1-3)Gal(b1-4)GlcNAc(b1-2)Man(a1-3)[GlcNAc(b1-3)Gal(b1-4)GlcNAc(b1-3)Gal(b1-4)GlcNAc(b1-2)Man(a1-6)]Man(b1-4)GlcNAc(b1-4)[Fuc(a1-6)]GlcNAc
In short: as §1

[8] = molecular target: GlcNAc(b1-3)Gal(b1-4)GlcNAc(b1-3)Gal(b1-4)GlcNAc(b1-2)[GlcNAc(b1-3)Gal(b1-4)GlcNAc(b1-3)Gal(b1-4)GlcNAc(b1-6)]Man(a1-6)[GlcNAc(b1-3)Gal(b1-4)GlcNAc(b1-3)Gal(b1-4)GlcNAc(b1-2)Man(a1-3)]Man(b1-4)GlcNAc(b1-4)[Fuc(a1-6)]GlcNAc
In short: as §1

[9] = molecular target: GlcNAc(b1-3)Gal(b1-4)GlcNAc(b1-3)Gal(b1-4)GlcNAc(b1-3)Gal(b1-4)GlcNAc(b1-2)Man(a1-3)[GlcNAc(b1-3)Gal(b1-4)GlcNAc(b1-3)Gal(b1-4)GlcNAc(b1-3)Gal(b1-4)GlcNAc(b1-2)Man(a1-6)]Man(b1-4)GlcNAc(b1-4)GlcNAc
In short: as §1

[10] = molecular target: GlcNAc(b1-3)Gal(b1-4)GlcNAc(b1-3)Gal(b1-4)GlcNAc(b1-3)Gal(b1-4)GlcNAc(b1-2)Man(a1-3)[GlcNAc(b1-3)Gal(b1-4)GlcNAc(b1-3)Gal(b1-4)GlcNAc(b1-3)Gal(b1-4)GlcNAc(b1-2)Man(a1-6)]Man(b1-4)GlcNAc(b1-4)[Fuc(a1-6)]GlcNAc
In short: as §1

[11] = molecular target: GlcNAc(b1-3)Gal(b1-4)GlcNAc(b1-3)Gal(b1-4)GlcNAc(b1-3)Gal(b1-4)GlcNAc(b1-2)[GlcNAc(b1-3)Gal(b1-4)GlcNAc(b1-3)Gal(b1-4)GlcNAc(b1-3)Gal(b1-4)GlcNAc(b1-6)]Man(a1-6)[GlcNAc(b1-3)Gal(b1-4)GlcNAc(b1-3)Gal(b1-4)GlcNAc(b1-3)Gal(b1-4)GlcNAc(b1-2)Man(a1-3)]Man(b1-4)GlcNAc(b1-4)[Fuc(a1-6)]GlcNAc
In short: as §1

[12] = molecular target: GlcNAc(b1-3)Gal(b1-4)GlcNAc(b1-3)Gal(b1-4)GlcNAc(b1-3)Gal(b1-4)GlcNAc(b1-3)Gal(b1-4)GlcNAc(b1-2)Man(a1-3)[GlcNAc(b1-3)Gal(b1-4)GlcNAc(b1-3)Gal(b1-4)GlcNAc(b1-3)Gal(b1-4)GlcNAc(b1-3)Gal(b1-4)GlcNAc(b1-2)Man(a1-6)]Man(b1-4)GlcNAc(b1-4)GlcNAc
In short: as §1

[13] = molecular target: GlcNAc(b1-3)Gal(b1-4)GlcNAc(b1-3)Gal(b1-4)GlcNAc(b1-3)Gal(b1-4)GlcNAc(b1-3)Gal(b1-4)GlcNAc(b1-2)Man(a1-3)[GlcNAc(b1-3)Gal(b1-4)GlcNAc(b1-3)Gal(b1-4)GlcNAc(b1-3)Gal(b1-4)GlcNAc(b1-3)Gal(b1-4)GlcNAc(b1-2)Man(a1-6)]Man(b1-4)GlcNAc(b1-4)[Fuc(a1-6)]GlcNAc
In short: as §1

[14] = molecular target: GlcNAc(b1-3)Gal(b1-4)GlcNAc(b1-3)Gal(b1-4)GlcNAc(b1-3)Gal(b1-4)GlcNAc(b1-3)Gal(b1-4)GlcNAc(b1-2)[GlcNAc(b1-3)Gal(b1-4)GlcNAc(b1-3)Gal(b1-4)GlcNAc(b1-3)Gal(b1-4)GlcNAc(b1-3)Gal(b1-4)GlcNAc(b1-6)]Man(a1-6)[GlcNAc(b1-3)Gal(b1-4)GlcNAc(b1-3)Gal(b1-4)GlcNAc(b1-3)Gal(b1-4)GlcNAc(b1-3)Gal(b1-4)GlcNAc(b1-2)Man(a1-3)]Man(b1-4)GlcNAc(b1-4)[Fuc(a1-6)]GlcNAc
In short: as §1

[15] = molecular target: GlcNAc(b1-3)Gal(b1-4)GlcNAc(b1-3)Gal(b1-4)GlcNAc(b1-3)GalNAc
In short: as §1

[16] = molecular target: GlcNAc(b1-3)Gal(b1-4)GlcNAc(b1-3)GalNAc
In short: as §1

[17] = molecular target: GlcNAc(b1-3)Gal(b1-4)GlcNAc(b1-3)[GlcNAc(b1-3)Gal(b1-4)GlcNAc(b1-3)]GalNAc
In short: as §1

[18] = molecular target: GlcNAc(b1-3)Gal(b1-4)GlcNAc(b1-6)[Gal(b1-3)]GalNAc
In short: as §1

[19] = molecular target: GlcNAc(b1-3)Gal(b1-4)GlcNAc(b1-6)[GlcNAc(b1-3)Gal(b1-3)]GalNAc
In short: as §1

[20] = molecular target: GlcNAc(b1-3)Gal(b1-4)GlcNAc(b1-6)[GlcNAc(b1-3)]Gal(b1-4)GlcNAc
In short: as §1

GlcNAc(b1-3)GalNAc = molecular target: GlcNAc(b1-3)GalNAc
In short: as §1

GlcNAc(b1-3)Man = molecular target: GlcNAc(b1-3)Man
In short: as §1

[21] = molecular target: GlcNAc(b1-3)[GlcNAc(b1-4)][GlcNAc(b1-6)]GlcNAc
In short: as §1

[22] = molecular target: GlcNAc(b1-3)[GlcNAc(b1-6)]Gal(b1-4)GlcNAc
In short: as §1

[23] = molecular target: GlcNAc(b1-3)[GlcNAc(b1-6)]GalNAc
In short: as §1

[24] = molecular target: GlcNAc(b1-4)Gal(b1-4)GlcNAc
In short: as §1

GlcNAc(b1-4)GlcNAc = molecular target: GlcNAc(b1-4)GlcNAc
In short: as §1

[25] = molecular target: GlcNAc(b1-4)GlcNAc(b1-4)GlcNAc
In short: as §1

[26] = molecular target: GlcNAc(b1-4)GlcNAc(b1-4)GlcNAc(b1-4)GlcNAc(b1-4)GlcNAc
In short: as §1

[27] = molecular target: GlcNAc(b1-4)GlcNAc(b1-4)GlcNAc(b1-4)GlcNAc(b1-4)GlcNAc(b1-4)GlcNAc
In short: as §1

[28] = molecular target: GlcNAc(b1-4)[GlcNAc(b1-6)]GalNAc
In short: as §1

[29] = molecular target: GlcNAc(b1-6)Gal(b1-4)GlcNAc
In short: as §1

GlcNAc(b1-6)GalNAc = molecular target: GlcNAc(b1-6)GalNAc
In short: as §1

[30] = molecular target: GlcNAc6S(b1-3)Gal(b1-4)GlcNAc
In short: as §1

Kdn(a2-3)Gal(b1-3)GalNAc = molecular target: Kdn(a2-3)Gal(b1-3)GalNAc
In short: as §1

Kdn(a2-3)Gal(b1-3)GlcNAc = molecular target: Kdn(a2-3)Gal(b1-3)GlcNAc
In short: as §1

Kdn(a2-3)Gal(b1-4)Glc = molecular target: Kdn(a2-3)Gal(b1-4)Glc
In short: as §1

Kdn(a2-3)Gal(b1-4)GlcNAc = molecular target: Kdn(a2-3)Gal(b1-4)GlcNAc
In short: as §1

[31] = molecular target: Kdn(a2-3)Gal(b1-4)[Fuc(a1-3)]GlcNAc
In short: as §1

Kdn(a2-6)Gal(b1-4)GlcNAc = molecular target: Kdn(a2-6)Gal(b1-4)GlcNAc
In short: as §1

[32] = molecular target: Man(a1-2)Man(a1-2)Man(a1-3)Man
In short: as §1

[33] = molecular target: Man(a1-2)Man(a1-2)Man(a1-6)[Man(a1-3)]Man
In short: as §1

Man(a1-2)Man(a1-3)Man = molecular target: Man(a1-2)Man(a1-3)Man
In short: as §1

[34] = molecular target: Man(a1-2)Man(a1-3)[Man(a1-2)Man(a1-6)]Man
In short: as §1

B1: Tp0751, 83732 (protein)
chain: MSYYHHHHHHLESTSLYKKAGFQHGHVPPRRIPPHDTFGALPTAALPSNARDTAAHPSDTADNTSGSSTTTDPRSHGNAPPAPVGGAAQTHTQPPVQTAMRIALWNRATHGEQGALQHLLAGLWIQTEISPNSGDIHPLLFFDREHAEITFSRASVQEIFLVDSAHTHRKTVSFLTRNTAISSIRRRLEVTFESHEVIHVRAVEDVARLKIGSTSMWDGQYTRYHAGPASAPSP
**Q.** Which results are given for B1?
**A.** glycan array binding signal (z-score) (GlcNAc(b1-3)Gal(b1-4)Glc): -0.663; glycan array binding signal (z-score) [1]: -0.39; glycan array binding signal (z-score) [2]: -0.228; glycan array binding signal (z-score) [3]: -0.382; glycan array binding signal (z-score) [4]: 0.604; glycan array binding signal (z-score) [5]: 0.201; glycan array binding signal (z-score) [6]: 0.73; glycan array binding signal (z-score) [7]: -0.349; glycan array binding signal (z-score) [8]: -0.371; glycan array binding signal (z-score) [9]: 0.049; glycan array binding signal (z-score) [10]: 0.241; glycan array binding signal (z-score) [11]: -0.165; glycan array binding signal (z-score) [12]: 0.414; glycan array binding signal (z-score) [13]: -0.326; glycan array binding signal (z-score) [14]: -0.088; glycan array binding signal (z-score) [15]: -0.412; glycan array binding signal (z-score) [16]: -0.301; glycan array binding signal (z-score) [17]: -0.214; glycan array binding signal (z-score) [18]: -0.81; glycan array binding signal (z-score) [19]: -0.836; glycan array binding signal (z-score) [20]: -0.244; glycan array binding signal (z-score) (GlcNAc(b1-3)GalNAc): -0.155; glycan array binding signal (z-score) (GlcNAc(b1-3)Man): -0.538; glycan array binding signal (z-score) [21]: -0.255; glycan array binding signal (z-score) [22]: -0.107; glycan array binding signal (z-score) [23]: -0.312; glycan array binding signal (z-score) [24]: -0.444; glycan array binding signal (z-score) (GlcNAc(b1-4)GlcNAc): -0.622; glycan array binding signal (z-score) [25]: -0.804; glycan array binding signal (z-score) [26]: 0.344; glycan array binding signal (z-score) [27]: -0.38; glycan array binding signal (z-score) [28]: -0.573; glycan array binding signal (z-score) [29]: 0.465; glycan array binding signal (z-score) (GlcNAc(b1-6)GalNAc): -0.08; glycan array binding signal (z-score) [30]: -0.304; glycan array binding signal (z-score) (Kdn(a2-3)Gal(b1-3)GalNAc): 0.307; glycan array binding signal (z-score) (Kdn(a2-3)Gal(b1-3)GlcNAc): -0.516; glycan array binding signal (z-score) (Kdn(a2-3)Gal(b1-4)Glc): -0.135; glycan array binding signal (z-score) (Kdn(a2-3)Gal(b1-4)GlcNAc): 0.055; glycan array binding signal (z-score) [31]: -0.3; glycan array binding signal (z-score) (Kdn(a2-6)Gal(b1-4)GlcNAc): 0.23; glycan array binding signal (z-score) [32]: -0.278; glycan array binding signal (z-score) [33]: -0.397; glycan array binding signal (z-score) (Man(a1-2)Man(a1-3)Man): -0.335; glycan array binding signal (z-score) [34]: -0.257
